# Data taken from PubChem BioAssay (NCATS).
# Amino acid sequences for entries named in this document (tags omitted). A change or cut given only in a name is not applied to a line headed by its entry.
# UniProt C7C422: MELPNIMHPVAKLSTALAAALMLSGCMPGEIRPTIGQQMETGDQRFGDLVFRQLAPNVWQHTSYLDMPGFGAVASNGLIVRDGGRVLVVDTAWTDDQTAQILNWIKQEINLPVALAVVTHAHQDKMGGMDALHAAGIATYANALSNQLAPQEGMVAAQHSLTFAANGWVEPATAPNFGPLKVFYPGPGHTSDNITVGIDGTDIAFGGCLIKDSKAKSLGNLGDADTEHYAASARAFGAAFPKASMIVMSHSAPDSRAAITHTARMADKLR
# UniProt P36969, whole entry, looked up: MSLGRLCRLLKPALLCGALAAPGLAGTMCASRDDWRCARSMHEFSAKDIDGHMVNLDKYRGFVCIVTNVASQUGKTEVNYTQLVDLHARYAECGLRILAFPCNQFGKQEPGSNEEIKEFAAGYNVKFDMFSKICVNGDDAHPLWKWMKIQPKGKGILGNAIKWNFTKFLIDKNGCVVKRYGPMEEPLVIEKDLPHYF
# UniProt Q14994: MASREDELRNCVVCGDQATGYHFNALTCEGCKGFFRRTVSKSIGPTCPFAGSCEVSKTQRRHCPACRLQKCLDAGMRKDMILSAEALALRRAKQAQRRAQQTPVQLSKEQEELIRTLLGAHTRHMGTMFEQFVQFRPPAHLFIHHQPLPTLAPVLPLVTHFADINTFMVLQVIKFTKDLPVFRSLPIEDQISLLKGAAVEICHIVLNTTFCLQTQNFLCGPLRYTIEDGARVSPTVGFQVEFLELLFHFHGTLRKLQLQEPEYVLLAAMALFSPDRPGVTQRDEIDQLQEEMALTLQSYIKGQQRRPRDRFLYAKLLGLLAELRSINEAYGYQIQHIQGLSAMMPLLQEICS
# UniProt P11712, whole entry, looked up: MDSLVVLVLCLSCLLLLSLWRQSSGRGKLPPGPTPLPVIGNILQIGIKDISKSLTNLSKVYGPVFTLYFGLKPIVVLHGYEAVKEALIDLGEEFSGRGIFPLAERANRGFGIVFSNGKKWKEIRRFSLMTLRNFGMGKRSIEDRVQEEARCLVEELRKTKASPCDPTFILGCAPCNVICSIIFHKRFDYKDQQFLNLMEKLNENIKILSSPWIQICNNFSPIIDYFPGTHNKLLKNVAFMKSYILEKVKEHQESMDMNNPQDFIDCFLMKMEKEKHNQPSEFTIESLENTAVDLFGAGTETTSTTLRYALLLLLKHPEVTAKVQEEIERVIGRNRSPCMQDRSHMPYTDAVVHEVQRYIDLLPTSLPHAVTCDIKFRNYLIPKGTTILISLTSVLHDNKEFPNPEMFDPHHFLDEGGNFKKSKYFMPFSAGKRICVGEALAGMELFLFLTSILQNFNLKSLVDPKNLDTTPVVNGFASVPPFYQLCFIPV
# UniProt P05177, whole entry, looked up: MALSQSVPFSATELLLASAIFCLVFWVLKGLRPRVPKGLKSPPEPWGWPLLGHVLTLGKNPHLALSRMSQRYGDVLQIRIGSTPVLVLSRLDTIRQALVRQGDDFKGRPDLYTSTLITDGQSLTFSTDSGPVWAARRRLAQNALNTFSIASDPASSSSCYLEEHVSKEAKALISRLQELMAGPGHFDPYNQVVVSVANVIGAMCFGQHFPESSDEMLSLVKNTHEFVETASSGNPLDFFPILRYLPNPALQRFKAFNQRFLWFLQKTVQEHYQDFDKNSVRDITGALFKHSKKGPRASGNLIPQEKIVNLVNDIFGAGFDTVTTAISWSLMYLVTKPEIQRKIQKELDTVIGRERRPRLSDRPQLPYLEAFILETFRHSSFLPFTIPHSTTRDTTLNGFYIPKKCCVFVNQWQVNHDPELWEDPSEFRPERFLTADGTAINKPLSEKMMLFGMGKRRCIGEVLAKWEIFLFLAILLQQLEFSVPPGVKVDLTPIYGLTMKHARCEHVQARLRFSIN
# UniProt P08684, whole entry, looked up: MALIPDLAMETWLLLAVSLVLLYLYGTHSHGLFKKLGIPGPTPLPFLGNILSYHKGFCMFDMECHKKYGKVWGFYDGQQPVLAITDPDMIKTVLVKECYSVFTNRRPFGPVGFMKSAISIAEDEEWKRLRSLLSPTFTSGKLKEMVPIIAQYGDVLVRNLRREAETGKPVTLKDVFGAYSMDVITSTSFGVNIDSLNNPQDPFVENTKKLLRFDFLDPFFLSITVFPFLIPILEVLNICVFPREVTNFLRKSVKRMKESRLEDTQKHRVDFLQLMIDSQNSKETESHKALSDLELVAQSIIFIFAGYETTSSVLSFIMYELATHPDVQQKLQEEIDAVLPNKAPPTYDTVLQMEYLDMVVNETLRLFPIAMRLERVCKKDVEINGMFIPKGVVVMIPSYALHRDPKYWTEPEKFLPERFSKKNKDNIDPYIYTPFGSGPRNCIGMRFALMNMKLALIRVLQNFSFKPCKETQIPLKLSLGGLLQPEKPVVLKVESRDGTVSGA
# UniProt O94782: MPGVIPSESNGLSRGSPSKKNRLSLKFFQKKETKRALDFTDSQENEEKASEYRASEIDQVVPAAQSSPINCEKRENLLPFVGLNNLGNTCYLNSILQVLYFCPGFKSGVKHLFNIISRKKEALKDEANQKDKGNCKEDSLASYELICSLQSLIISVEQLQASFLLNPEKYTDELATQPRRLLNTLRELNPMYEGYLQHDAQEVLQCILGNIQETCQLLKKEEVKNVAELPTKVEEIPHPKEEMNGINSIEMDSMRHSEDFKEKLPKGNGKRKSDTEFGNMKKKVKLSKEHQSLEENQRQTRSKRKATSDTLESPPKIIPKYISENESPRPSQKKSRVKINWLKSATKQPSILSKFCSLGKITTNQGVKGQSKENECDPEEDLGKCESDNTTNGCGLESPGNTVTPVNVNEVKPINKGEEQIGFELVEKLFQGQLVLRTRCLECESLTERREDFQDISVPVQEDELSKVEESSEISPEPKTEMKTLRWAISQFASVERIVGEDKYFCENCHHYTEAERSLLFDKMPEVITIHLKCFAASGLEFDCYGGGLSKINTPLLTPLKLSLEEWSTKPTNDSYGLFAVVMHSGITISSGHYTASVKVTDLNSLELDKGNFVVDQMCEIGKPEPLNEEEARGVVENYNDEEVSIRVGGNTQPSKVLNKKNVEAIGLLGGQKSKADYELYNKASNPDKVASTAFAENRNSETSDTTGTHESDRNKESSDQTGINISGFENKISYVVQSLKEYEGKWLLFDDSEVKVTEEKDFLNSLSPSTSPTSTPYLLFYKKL
# UniProt Q9HAZ1: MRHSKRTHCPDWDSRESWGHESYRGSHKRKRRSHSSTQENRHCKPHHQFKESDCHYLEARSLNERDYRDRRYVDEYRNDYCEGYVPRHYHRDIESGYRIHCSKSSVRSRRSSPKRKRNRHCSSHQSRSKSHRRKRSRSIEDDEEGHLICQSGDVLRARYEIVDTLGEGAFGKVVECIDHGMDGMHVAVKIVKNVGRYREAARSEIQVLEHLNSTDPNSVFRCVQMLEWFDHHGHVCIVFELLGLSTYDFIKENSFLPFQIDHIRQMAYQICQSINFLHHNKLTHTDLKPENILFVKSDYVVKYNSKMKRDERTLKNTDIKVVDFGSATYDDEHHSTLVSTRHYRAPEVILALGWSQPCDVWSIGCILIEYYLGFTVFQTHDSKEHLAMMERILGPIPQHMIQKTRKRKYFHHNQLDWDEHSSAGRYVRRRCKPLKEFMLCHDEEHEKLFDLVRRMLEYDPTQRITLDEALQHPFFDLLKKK
# UniProt P03372, whole entry, looked up: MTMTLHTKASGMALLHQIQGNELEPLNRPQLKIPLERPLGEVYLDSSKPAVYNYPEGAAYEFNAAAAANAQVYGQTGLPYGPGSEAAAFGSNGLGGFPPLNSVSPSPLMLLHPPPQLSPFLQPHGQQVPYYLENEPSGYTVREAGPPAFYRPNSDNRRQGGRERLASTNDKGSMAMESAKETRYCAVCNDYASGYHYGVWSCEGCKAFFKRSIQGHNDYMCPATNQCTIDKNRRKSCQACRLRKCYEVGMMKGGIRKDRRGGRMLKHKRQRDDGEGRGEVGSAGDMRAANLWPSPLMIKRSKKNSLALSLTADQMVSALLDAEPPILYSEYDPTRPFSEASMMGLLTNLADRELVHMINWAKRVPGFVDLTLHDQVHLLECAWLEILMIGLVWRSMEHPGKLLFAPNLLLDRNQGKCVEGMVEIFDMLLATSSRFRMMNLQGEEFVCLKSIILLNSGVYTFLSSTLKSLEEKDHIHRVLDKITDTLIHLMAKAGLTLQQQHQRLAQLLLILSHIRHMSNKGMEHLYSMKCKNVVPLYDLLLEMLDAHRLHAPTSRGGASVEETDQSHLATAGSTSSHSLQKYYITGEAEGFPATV
# UniProt P19793: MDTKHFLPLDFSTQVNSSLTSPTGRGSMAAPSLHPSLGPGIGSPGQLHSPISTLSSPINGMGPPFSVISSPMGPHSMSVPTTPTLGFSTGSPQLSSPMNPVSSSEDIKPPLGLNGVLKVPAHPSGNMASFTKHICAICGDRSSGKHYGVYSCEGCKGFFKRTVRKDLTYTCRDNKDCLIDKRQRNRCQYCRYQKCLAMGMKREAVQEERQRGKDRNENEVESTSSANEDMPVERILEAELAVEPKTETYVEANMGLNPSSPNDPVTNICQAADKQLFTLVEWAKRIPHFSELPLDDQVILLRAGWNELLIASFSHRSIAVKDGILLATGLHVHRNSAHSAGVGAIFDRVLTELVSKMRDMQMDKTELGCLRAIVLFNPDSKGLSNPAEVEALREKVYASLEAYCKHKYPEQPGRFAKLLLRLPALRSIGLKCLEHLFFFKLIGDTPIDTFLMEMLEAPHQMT
# UniProt P01375, whole entry, looked up: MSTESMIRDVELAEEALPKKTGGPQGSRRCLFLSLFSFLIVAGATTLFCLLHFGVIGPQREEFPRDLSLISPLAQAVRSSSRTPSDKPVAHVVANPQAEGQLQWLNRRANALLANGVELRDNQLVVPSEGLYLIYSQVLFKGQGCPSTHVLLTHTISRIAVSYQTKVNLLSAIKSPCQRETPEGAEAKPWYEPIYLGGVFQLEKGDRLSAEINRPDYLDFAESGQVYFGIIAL
# UniProt P33261, whole entry, looked up: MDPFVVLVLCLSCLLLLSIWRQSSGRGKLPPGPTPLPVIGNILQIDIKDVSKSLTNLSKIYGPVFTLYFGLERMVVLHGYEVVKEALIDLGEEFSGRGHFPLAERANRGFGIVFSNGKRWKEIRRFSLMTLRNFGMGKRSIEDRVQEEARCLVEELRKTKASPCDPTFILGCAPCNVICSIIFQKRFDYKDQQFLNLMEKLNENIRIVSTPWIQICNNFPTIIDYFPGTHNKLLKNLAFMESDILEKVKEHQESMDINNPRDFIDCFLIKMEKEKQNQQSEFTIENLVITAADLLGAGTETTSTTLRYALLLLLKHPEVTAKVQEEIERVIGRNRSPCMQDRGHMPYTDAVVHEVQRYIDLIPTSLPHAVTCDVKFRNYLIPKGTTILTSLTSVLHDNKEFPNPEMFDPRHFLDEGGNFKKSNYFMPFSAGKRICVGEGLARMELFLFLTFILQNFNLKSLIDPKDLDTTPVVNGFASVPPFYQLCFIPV
# UniProt O75469: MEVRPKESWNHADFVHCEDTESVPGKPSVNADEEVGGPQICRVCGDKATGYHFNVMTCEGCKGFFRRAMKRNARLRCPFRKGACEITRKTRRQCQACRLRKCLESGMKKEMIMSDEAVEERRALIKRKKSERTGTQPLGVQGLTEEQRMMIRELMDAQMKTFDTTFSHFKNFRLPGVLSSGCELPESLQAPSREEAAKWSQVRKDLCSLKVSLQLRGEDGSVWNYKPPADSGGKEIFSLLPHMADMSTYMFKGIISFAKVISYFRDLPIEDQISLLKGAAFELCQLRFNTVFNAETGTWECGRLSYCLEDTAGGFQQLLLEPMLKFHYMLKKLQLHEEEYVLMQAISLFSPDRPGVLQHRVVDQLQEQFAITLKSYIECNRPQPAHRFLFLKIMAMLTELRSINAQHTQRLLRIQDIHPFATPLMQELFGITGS
# This list was built around the results that the source calls inconclusive (neither active nor inactive); the mix of calls is not that of the screen. For part of these data: Potencies of inconclusive entries are doubtful fits and often do not repeat. For part of these data: “Side channel” marks fits to a control or component signal instead of the main read-out. Activity calls are given as the source filed them. Unless noted, the call rests on the fitted dose curve; in most records, active means well fitted curve in the direction sought with a large enough effect; inconclusive means small, poorly fitted or top-dose-only effect, or another doubt; inactive means no such curve, though single readings can be large; an effect the other way counts as inactive or inconclusive.
# What was measured:
# [1] = biological target: Metallo-beta-lactamase type 2 (Klebsiella pneumoniae) (UniProt C7C422); test: qHTS to identify inhibitors of the New Delhi Metallo-beta-lactamase (NDM): assay validation screen against the NCATS LOPAC Collection (AID 1794843); further: potency means the concentration at half of the fitted maximal effect;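 on activity change, negative = inhibition: nitrocefin turnover by NDM-1 measured as 485 nm absorbance at plateau; on the % scale 0 is the no-effect control and ±100 the full control effect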
# How it was run: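 NDM-1 at 2 nM final in 50 mM HEPES pH 7.0, 1 uM ZnSO4, 0.01% Tween20, preincubated with LOPAC compounds pinned in DMSO; 50 uM nitrocefin (stock) added. Hydrolysis read as absorbance at 485 nm in the plateau phase.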
# [2] = biological target: Phospholipid hydroperoxide glutathione peroxidase GPX4 (Homo sapiens) (UniProt P36969); test: Primary qHTS Assay for Inhibitors of Recombinant Selenoprotein Glutathione Peroxidase 4 (GPX4) (AID 1845192); further: nearly all actives have a fitted effect of over 65% in size
# How it was run: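 GR-coupled readout: 100 nM GR, 1 mM GSH, 0.5 mM NADPH; NADPH fluorescence (ex 340/em 450 nm) read at t=0 and after 15 min RT. GPX4 200 nM, preincubated 30 min with compound; substrate 0.5 mM CHP.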
# [3] = biological target: Nuclear receptor subfamily 1 group I member 3 (Homo sapiens) (UniProt Q14994); test: Primary qHTS for agonist of constitutive androstane receptor (CAR) against the NCATS DSHEA and TCM libraries (AID 1794839); further: potency means the concentration at half of the fitted maximal effect
# How it was run: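 qHTS, agonist mode: HepG2-CYP2B6-hCAR, 2,500 cells/well, 5 h attach; cpds + PK11195 0.75 µM final; 24 h, 37 °C, 5% CO2. Readouts: CellTiter-Fluor (405/540 nm), then ONE-Glo luminescence.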
# [4] = biological target: Cytochrome P450 2C9 (Homo sapiens) (UniProt P11712); test: qHTS for inhibitors of CYP2C9 against the NCATS DSHEA and TCM libraries (AID 1919973); further: potency means the concentration at half of the fitted maximal effect
# How it was run: (§1)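 Read-out is luminescence after P450-Glo detection (30 min, RT). Before that: 15 min compound–enzyme preincubation, then 30-45 min reaction with 1x NADPH regeneration solution, substrate concentration isoform-specific.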
# [5] = biological target: Cytochrome P450 1A2 (Homo sapiens) (UniProt P05177); test: qHTS for inhibitors of CYPIA2 against the NCATS DSHEA and TCM libraries (AID 1919976); further: potency means the concentration at half of the fitted maximal effect;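 on activity change, negative = inhibition: light from luciferin formed by CYP1A2 from a pro-luciferin substrate; on the % scale 0 is the no-effect control and ±100 the full control effect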
# How it was run: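 CYP1A2 + luciferin substrate, 100 mM KPO4-type buffer; cmpd 15 min RT; 1x NADPH regen, 30-45 min RT dark; detection reagent 30 min RT; luminescence. Minus-enzyme wells as background; furafylline intraplate control.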
# [6] = HepG2 viability counterscreen (readout 1: protease activity) against the NCATS DSHEA and TCM libraries (AID 1794841)
# How it was run: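 Same wells read twice: first fluorescence from cleaved GF-AFC substrate (25 uM final, 30 min, 37C) for live-cell protease, then CellTiter-Glo luminescence after 30 min at room temperature for ATP. HepG2 cells were exposed ~24 h to substances.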
# [7] = biological target: Cytochrome P450 3A4 (Homo sapiens) (UniProt P08684); test: qHTS Assay for Inhibitors and Substrates of Cytochrome P450 3A4 (AID 884); further: on the % scale 0 is the no-effect control and ±100 the full control effect; nearly all actives have a fitted effect of over 50% in size
# How it was run: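 20 nM human CYP3A4 with 25 uM Luciferin-PPXE (at KM) in 200 mM KPO4, preincubated 10 min with compound; NADPH regeneration started a 60 min RT reaction. Luciferin detected by luminescence, normalized to 57 uM ketoconazole as full inhibition.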
# [8] = biological target: Ubiquitin carboxyl-terminal hydrolase 1 (Homo sapiens) (UniProt O94782); test: Inhibitors of USP1/UAF1: Pilot qHTS (AID 504865); further: potency means the concentration at half of the fitted maximal effect; nearly all actives have a fitted effect of over 35% in size
# How it was run: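 In 50mM HEPES pH 7.8 containing 0.5mM EDTA, 1mM TCEP, 0.1 mg/ml BSA and 0.01% Tween-20, 1nM USP1/UAF1 is exposed to compound for 15 min, then Ub-Rho (150nM final) is added and fluorescence is read over time.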
# [9] = biological target: Cytochrome P450 2C9 (Homo sapiens) (UniProt P11712); test: qHTS Assay for Inhibitors and Substrates of Cytochrome P450 2C9 (AID 883); settings: recombinant CYP2C9, luciferin-H luminescence, 60 min; activity change, negative = inhibition: at 57.1 µM (top of the series); further: on the % scale 0 is the no-effect control and ±100 the full control effect; nearly all actives have a fitted effect of over 60% in size
# How it was run: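 A luminogenic readout tracked human CYP2C9 (10nM) converting deoxyluciferin (100uM, at KM) in 25mM KPO4 during 60 min at 37C with regenerated NADPH. Values normalized to 57uM sulphaphenazole as complete inhibition.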
# [10] = qHTS Assay for Identification of Small Molecule Agonists for Hypoxia Response Element Signaling Pathway (AID 914; active means well fitted activation curve with a large enough effect in the signal ratio, with a control signal flat, not every such curve was filed as active; inconclusive means small, poorly fitted or top-dose-only effect, or effect the other way, or a change in a side signal; the % refers to the signal ratio; further: potency means the concentration at half of the fitted maximal effect; on activation: % of control where 0% means no effect); settings: ME-180 (cervical carcinoma) HRE-bla reporter, beta-lactamase ratio, CoCl2, 17 h; activation: active compounds read high
# How it was run: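 HRE-bla ME-180 cells, overnight plating in Opti-MEM with 0.5% dialyzed FBS; cpd titration + EC50 CoCl2, 17 h, 37 degrees Celsius; CCF4 2.5 h RT; 460/530 nm ratio; AC50.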
# [11] = biological target: Dual specificity protein kinase CLK4 (Homo sapiens) (UniProt Q9HAZ1); test: qHTS Assay for Inhibitors of CDC-like Kinase 4 (ADP-Glo Assay) (AID 1771); further: on the % scale 0 is the no-effect control and ±100 the full control effect; nearly all actives have a fitted effect of over 70% in size
# How it was run: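 Luminescence from ADP-Glo reports ADP produced by 25 nM Clk4 acting on 100 uM RS repeat peptide with 1 uM ATP over 1 hr at room temperature; residual ATP is depleted before ADP is converted to ATP for detection.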
# [12] = biological target: Mitogen-activated protein kinase 10 (Mus musculus) (UniProt Q61831); test: JNK3 AlphaScreen Assay (AID 530; active means well fitted curve in either direction with a large enough effect, not every such curve was filed as active; inconclusive means small, poorly fitted or top-dose-only effect, or another doubt;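 further: kinase came from lysate of stimulated human HepG2 cells; signal reports phosphorylation of biotinylated GST-cJun 1-79 at Ser73 with 10 µM ATP; on the % scale 0 is the no-effect control and ±100 the full control effect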); settings: JNK3 lysate, c-Jun phosphorylation; activity change, negative = inhibition: at 57.1 µM (top of the series)
# How it was run: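 Inhibitors reduce antibody binding to phosphorylated biotin-cJun, lowering AlphaScreen luminescence. Lysates from HepG2 cells pre-activated by IL-1beta plus TNF-alpha supplied JNK3; compounds were titrated.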
# [13] = Cell Viability - NIH 3T3 (AID 541); settings: NIH 3T3 cell viability, qHTS; activity change, negative = cytotoxicity: at 92.2 µM (top of the series);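 further: plate controls were DMSO alone for no effect and tamoxifen positive control for full effect; nearly all actives have a fitted effect of over 25% in size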
# How it was run: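 Luminescent ATP signal (CellTiter-Glo) served as the viability read-out after NIH 3T3 cells were exposed to compounds over a concentration range for 40 hr at 37 °C. Hill-equation modelling of concentration-response data gave AC50.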
# [14] = Cell Viability - H-4-II-E (AID 543); further: potency means the concentration at half of the fitted maximal effect; nearly all actives have a fitted effect of over 35% in size
# How it was run: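 Luminescent ATP signal (CellTiter-Glo) served as the viability read-out, with cytotoxicity seen as a concentration-dependent ATP drop. Cells were treated for 40 hours in complete medium. AC50 values derive from Hill-equation modelling.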
# [15] = Cell Viability - Mesenchymal (AID 546); settings: mesenchymal cells viability, qHTS; activity change, negative = cytotoxicity: at 91.7 µM (top of the series);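 further: cells exposed to compound for 40 hours before reading; 0% = DMSO only and -100% = 100 µM tamoxifen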
# How it was run: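 Normal human renal glomerulus-derived kidney mesenchymal cells, 1000 per well in complete medium, were treated with compounds for 40 hr at 37 °C. Viability was read as intracellular ATP by CellTiter-Glo luminescence; AC50 values came from Hill-equation fits of qHTS concentration-response data.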
# [16] = MultiTox-Fluor Cytotoxicity Assay - LYMP1-001 - Live Cells (AID 947);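 further: 0% = DMSO only and full inhibition = tetraoctylammonium bromide control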
# [17] = Cell Viability - LYMP1-003 - Assay at 40 hr (AID 964); further: on the % scale 0 is the no-effect control and ±100 the full control effect; nearly all actives have a fitted effect of over 60% in size
# How it was run: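 Cells were seeded at 2500 per well and incubated 5 hr at 37 C. Compounds were added across a concentration series and left 40 hr at 37 C. CellTiter-Glo was added for 30 min at room temperature before luminescence reading.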
# [18] = biological target: Estrogen receptor (Homo sapiens) (UniProt P03372); test: qHTS assay for small molecule antagonists of estrogen receptor alpha signaling (AID 588513; active means well fitted curve in the direction sought with a large enough effect in the signal ratio, with a control signal flat, not every such curve was filed as active; inconclusive means small, poorly fitted or top-dose-only effect, or effect the other way, or a change in a side signal; inactive means no such curve, though single readings can be large or run the other way; the % refers to the signal ratio; further: on the % scale 0 is the no-effect control and ±100 the full control effect); settings: ER-alpha-UAS-bla HEK293, beta-lactamase ratio, antagonist mode; activity, negative = inhibition: at 76.9 µM (top of the series) unless noted
# How it was run: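 Fluorescence from CCF4 substrate after 2 h at room temperature gave reporter activity; cells had been exposed to compound and 0.5nM 17-beta-estradiol for 18 h at 37 C. Hill-equation fitting yielded IC50 and maximal response.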
# [19] = biological target: Estrogen receptor (Homo sapiens) (UniProt P03372); test: qHTS assay for small molecule agonists of estrogen receptor alpha signaling (AID 588514; calls by dose curve;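 further: 0% = vehicle only and 100% = reference agonist; nearly all actives have a fitted effect of over 70% in size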); settings: ER-alpha-UAS-bla HEK293, beta-lactamase ratio, 18 h; activation: at 76.8 µM (top of the series), percent of full estradiol response, vehicle zero
# How it was run: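 Cells were plated at 5000/well, incubated 4 hrs at 37 C, dosed with compound titration series, incubated 18 hrs at 37 C, loaded with CCF4 dye for 2 hrs at RT, then fluorescence was read.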
# [20] = biological target: Retinoic acid receptor RXR-alpha (Homo sapiens) (UniProt P19793); test: qHTS assay for small molecule agonists of retinoid X receptor alpha signaling (AID 588544; calls by dose curve; further: potency means the concentration at half of the fitted maximal effect); settings: HEK293T RXRa-UAS-bla, beta-lactamase reporter, 18 h; activation: at 76.7 µM (top of the series) unless noted
# [21] = biological target: Tumor necrosis factor (Homo sapiens) (UniProt P01375); test: qHTS assay to identify small molecules that stimulate Tumor Necrosis Factor-alpha (TNF-alpha) secretion (AID 651757; active means well fitted curve in the direction sought with a large enough effect in the signal ratio; inconclusive means small, poorly fitted or top-dose-only effect, or a change in a side signal; inactive means no such curve, though single readings can be large or run the other way; the % refers to the signal ratio; further: 0% is about no effect); settings: Human cells, HTRF 665/615 ratio; activation (TNF-alpha secretion): at 92.2 µM (top of the series)
# How it was run: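 Read-out is HTRF, a TR-FRET sandwich of cryptate- and XL665-labeled anti-TNF-alpha antibodies detecting cytokine secreted by THP-1 cells. Cells had been incubated with test compounds at 37 C for 17 hrs beforehand.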
# [22] = qHTS assay to identify small molecules that stimulate interleukin-8 (IL-8) secretion (AID 651758; active means well fitted activation curve with a large enough effect in the signal ratio; inconclusive means small, poorly fitted or top-dose-only effect, or effect the other way, or a change in a side signal; the % refers to the signal ratio; further: 0% is about no effect); settings: HTRF ratio (665/615); activation: at 92.2 µM (top of the series)
# How it was run: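 THP-1, 2000 cells/well; cpd 16 h, 37 C; add cryptate + XL665 anti-IL-8 Abs; RT 1-3 h; TR-FRET read.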
# [23] = qHTS assay for small molecule agonists of the antioxidant response element (ARE) signaling pathway measured by Nrf2-dependant transcriptional activity (AID 720636; active means well fitted curve in the direction sought with a large enough effect in the repeat runs; inconclusive means weak or mixed curves; inactive means no such curve, though single readings can be large; an effect the other way counts as inactive or inconclusive; further: potency means the concentration at half of the fitted maximal effect)
# How it was run: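 HepG2 ARE-luc reporter line, 1% dialyzed FBS; 6 hr attachment at 37 C, compound pinned in, 16 hr at 37 C/5% CO2; ONE-Glo, 30 min RT, luminescence read.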
# [24] = qHTS assay for small molecule antagonists of the retinoid-related orphan receptor gamma (ROR-gamma) signaling pathway - cell viability counter screen (AID 720652; active means well fitted curve in the direction sought with a large enough effect in the repeat runs; inconclusive means weak or mixed curves; inactive means no such curve, though single readings can be large; an effect the other way counts as inactive or inconclusive;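 further: potency means the concentration at half of the fitted maximal effect; compound exposure lasted 16 hr before ATP read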)
# How it was run: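 Luminescence from CellTiter-Glo after 30 min at room temperature reported cellular ATP as the cytotoxicity measure. Cells were the CHO reporter line with doxycycline-induced ROR-gamma expression, exposed to compound for 16 hr at 37 C.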
# [25] = biological target: Cytochrome P450 2C19 (Homo sapiens) (UniProt P33261); test: qHTS for inhibitors of CYP2C19 against the NCATS DSHEA and TCM libraries (AID 1919974)
# How it was run: as §1
# [26] = biological target: Nuclear receptor subfamily 1 group I member 2 (Homo sapiens) (UniProt O75469); test: Dual reporter qHTS for agonist of Pregnane X Receptor (hPXR) against the NCATS DSHEA and TCM libraries: Luminescence readout (AID 1920059); further: potency means the concentration at half of the fitted maximal effect
# How it was run: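 hPXR-LucHepG2 cells in phenol red-free DMEM with 5% charcoal-stripped FBS, 2000 cells/well, attached 5 h, then exposed 24 h at 37C to compounds; rifampicin as positive agonist control (2.8 nM–92 uM). Luciferase luminescence read.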
smiles,measurement,setting,value
O=C(CCSCc1ccco1)NNC(=O)N1Cc2ccccc2Oc2ccc(Cl)cc21,Potency,[1],inactive
same,Potency,[2],inactive
C=C1CC/C=C(/C)CC[C@@H]2[C@@H]1CC2(C)C,Potency,[3],active: 7.08 µM
same,Potency,[4],"inconclusive: 3.55 µM [inhibitor, full curve]"
same,Potency,[5],active: 3.55 µM
COCCOc1cc2ncnc(Cl)c2cc1OCCOC,Potency,[1],"inconclusive: 11.2 µM [inhibitor, partial curve]"
O=C(/C=C/c1ccc(O)c2c1[C@H](C(=O)O)[C@@H](c1ccc(O)c(O)c1)O2)O[C@H](Cc1ccc(O)c(O)c1)C(=O)O,Potency,[6],"inconclusive: 0.794 µM [inhibitor, full curve]"
same,Potency,[5],inactive
O=c1cc(-c2ccc(O)cc2)oc2cc(O[C@H]3OC(CO)C(O)C(O)C3O)cc(O)c12 (stereo partly drawn),Potency,[7],inactive
same,Potency,[8],"inconclusive: 89.1 µM [inhibitor, partial curve, poor fit]"
same,Potency,[3],"inconclusive: 35.5 µM [activator, single point]"
same,Potency,[4],"inconclusive: 14.1 µM [inhibitor, partial curve]"
COc1ccc(Oc2ncc3nc(-c4cn(C)c5ccccc45)c(=O)n(C)c3n2)cc1,Potency,[9],inactive
same,Potency,[10],"inconclusive: 5.01 µM [activator, single point]"
same,Potency,[11],inactive
COc1cc(/C=C/c2ccccc2)oc(=O)c1,Potency,[12],inactive
same,"activity change, negative = cytotoxicity",[13],inconclusive: -34.8%
same,Potency,[14],"inconclusive: 39.8 µM [falling, partial curve]"
same,Potency,[15],inactive
same,Potency,[16],inactive
same,Potency,[17],inactive
same,Potency,[18],inactive
same,activation,[19],inconclusive: 39.3%
same,Potency,[20],"inconclusive: 25.1 µM [side channel, rising, partial curve, poor fit]"
same,activation (TNF-alpha secretion),[21],inconclusive: 0.658%
same,activation,[22],inconclusive: -15.4%
same,Potency,[23],"inconclusive: 1.88 µM [activator, full curve, poor fit]"
same,Potency,[24],"inconclusive: 75 µM [cytotoxic, partial curve, poor fit]"
same,Potency,[3],active: 12.6 µM
same,Potency,[25],"inconclusive: 25.1 µM [inhibitor, partial curve, poor fit]"
same,Potency,[26],"inconclusive: 22.4 µM [activator, partial curve]"
CNc1cc(-c2ccccc2C(F)(F)F)ncn1,activation,[10],inactive: 17.1%
same,Potency,[11],inactive
